# In the supplement of paper PMC3334620:
# In all, about 33,000 sequences were measured (“E-score (-0.5 to 0.5)”: median about -0.016, highest 2% from about 0.3 on). The list shows a part of the results.
# Biological target: T1, Yer184c (UniProt P39961)
# T1 sequence: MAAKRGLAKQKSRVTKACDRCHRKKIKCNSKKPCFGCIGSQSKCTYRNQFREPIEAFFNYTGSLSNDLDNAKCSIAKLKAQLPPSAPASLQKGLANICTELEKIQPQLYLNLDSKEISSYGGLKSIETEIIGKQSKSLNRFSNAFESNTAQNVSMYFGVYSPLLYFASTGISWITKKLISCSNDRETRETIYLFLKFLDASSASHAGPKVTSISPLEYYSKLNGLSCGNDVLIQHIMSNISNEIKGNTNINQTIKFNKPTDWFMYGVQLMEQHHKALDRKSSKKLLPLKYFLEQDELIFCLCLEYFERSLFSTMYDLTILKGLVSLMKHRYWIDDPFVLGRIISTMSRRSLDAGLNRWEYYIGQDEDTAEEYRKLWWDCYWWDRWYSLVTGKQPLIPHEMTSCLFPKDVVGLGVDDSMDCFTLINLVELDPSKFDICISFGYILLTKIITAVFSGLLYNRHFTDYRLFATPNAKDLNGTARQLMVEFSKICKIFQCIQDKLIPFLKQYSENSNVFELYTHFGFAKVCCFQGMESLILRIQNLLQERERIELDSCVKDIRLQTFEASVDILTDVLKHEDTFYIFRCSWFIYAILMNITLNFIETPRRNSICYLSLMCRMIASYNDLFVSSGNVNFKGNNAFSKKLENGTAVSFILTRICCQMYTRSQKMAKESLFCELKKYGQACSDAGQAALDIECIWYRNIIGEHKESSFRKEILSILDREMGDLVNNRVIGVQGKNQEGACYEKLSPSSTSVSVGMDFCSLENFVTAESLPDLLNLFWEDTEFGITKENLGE
# Assay: PBM E-score (8-mer binding enrichment) (E-score (-0.5 to 0.5)); higher = stronger / more preferred TF binding
# Conditions: protein concentration: 100 nM; construct: GST-full length
# Protocol: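 Universal 'all 10-mer' protein binding microarrays (Agilent AMADID 015681) probed with GST-tagged S. cerevisiae TFs (full-length or DBD) made by in vitro transcription/translation (PURExpress), about 100-200 nM. Bound TF was detected with fluorescent anti-GST. Each ungapped 8-mer (which stands for itself and its reverse complement) is scored by the PBM enrichment score (E-score), a modified Wilcoxon-Mann-Whitney statistic from -0.5 to +0.5, computed with the Universal PBM Analysis Suite. Scale: above 0.35 generally sequence-specific binding.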
row,Sequence,PBM E-score
1,ATATGCAA,0.0547
2,CTGGTCCC,-0.353
3,CCAACGAG,-0.255
4,AACTATTA,0.126
5,ACTTAATG,-0.0208
6,AGCGTTCC,0.0949
7,GATTAATC,0.299
8,CTATTGAG,-0.125
9,CATCCTCG,0.127
10,ACGTACTC,-0.0207
11,CCCTATAA,-0.216
12,CGATCCTC,-0.18
13,TCCATAAA,0.0466
14,AAGGCAGA,-0.221
15,CTCTGGTC,-0.0844
16,GTCTCCAC,-0.11
17,GATCCAGA,0.164
18,CAGCGATA,-0.0107
19,AGATAATC,0.13
20,AATGGTTA,-0.0173
21,CCACGCCG,-0.00749
22,ATCGAGAC,0.0367
23,AGCCATAT,-0.0325
24,ATCGTGCA,-0.0208
25,CAGGTTCA,-0.21

row,Sequence,PBM E-score
1,CTGGACTA,-0.172
2,CCAAGGAG,-0.18
3,CGTGTGAA,-0.03
4,GCGATCTA,0.0904
5,CTCCTCGA,-0.108
6,ACGGACAC,0.152
7,CAACACGG,0.135
8,CTTCGCGC,0.158
9,CCAACTAC,-0.0221
10,CCGCTCAG,-0.115
11,TATTAATA,-0.00461
12,CCATCGAG,0.0671
13,AAGACTAT,-0.0552
14,AAGATTCA,0.0804
15,GACACAGA,0.08
16,CAGCCTAA,-0.117
17,AAGGGACT,-0.172
18,ACTCTCTC,0.00201
19,ATGCGTTG,-0.00373
20,ACTGTTTG,-0.015
21,AGTATACA,0.116
22,GACTTAAA,0.0439
23,ACTTTGGA,0.0736
24,CTGGGAAC,-0.0861
25,GGTTTAAC,0.0515

# Some of the entries above in a different format.
row | Sequence | PBM E-score
16 | CAGCCTAA | -0.117
17 | AAGGGACT | -0.172
18 | ACTCTCTC | 0.00201
19 | ATGCGTTG | -0.00373
20 | ACTGTTTG | -0.015
21 | AGTATACA | 0.116

# (list continues)

row,Sequence,PBM E-score
1,GCATCCAC,-0.0329
2,CAACATAC,0.113
3,GAGTGCGA,-0.032
4,CTTAAGCC,0.0119
5,ACTTCACA,0.00662
6,CCCAACGC,-0.137
7,ACAAGAAT,0.151
8,CAGAGCAG,-0.00548
9,ACGGCCCG,0.146
10,AATTGTAC,0.145
11,GACACCTA,-0.129
12,GTTCATAA,0.107
13,GTCTGTTA,0.122
14,AATCTACC,0.122
15,TACAACAA,0.132
16,TGCGTACA,-0.132
17,CGCTGAGA,-0.0171
18,ACTGTCCG,0.219
19,AACCTTAC,0.0211
20,CTGTGGTA,-0.0552
21,GCCAGAAA,0.126
22,AGGGCGGC,-0.251
23,ACACTTCT,-0.145
24,ATTGATAG,0.102
25,CCATATAC,0.0285

row,Sequence,PBM E-score
1,CAGCAGTC,-0.145
2,ATATAACA,0.309
3,CTATGAAA,0.00567
4,AGTTAATA,0.26
5,AGACAGCT,-0.157
6,CTCACCGC,-0.19
7,GCACCCGC,0.0546
8,AGGGTGAT,-0.142
9,CGAATCGC,-0.0435
10,ACTGCACT,-0.0821
11,CGCAAAAC,0.0423
12,CTTGAGAC,-0.0888
13,CATGACCG,-0.0859
14,CACGAATG,0.00716
15,AGACCTCT,-0.243
16,ACGCCTTC,-0.122
17,ATAGGTAA,-0.0606
18,ATGCCCAT,-0.15
19,CATCGTCG,-0.0407
20,ACTGCACA,0.0302
21,CGAAGACC,-0.00016
22,AGTCGCCA,-0.195
23,CTCTTAAG,-0.00772
24,ATCCCCGG,0.185
25,CTTTGAGC,-0.162

row,Sequence,PBM E-score
1,ATCCTGCG,-0.0171
2,CATTATTC,0.113
3,TCCTTCCA,-0.209
4,GGGAAGAA,-0.0284
5,ACACAAGG,-0.164
6,ATAGGTCG,-0.0995
7,CCATAGGC,-0.236
8,ACGAGCTG,-0.0534
9,CAAGCGCA,0.0414
10,CTTCTGAC,-0.218
11,ACATGAAC,0.041
12,ATCACAGG,-0.118
13,TGCTCCAA,0.00011
14,TCTCGTAA,0.0419
15,GTATTCAC,0.249
16,AAACGTAC,-0.0505
17,ATGCTACG,-0.111
18,CCCAGTCG,-0.145
19,GAGCATAA,0.186
20,AAATTTAA,0.272
21,AATTTCTG,0.146
22,ATACGTAG,-0.109
23,GTTCTGCA,-0.0675
24,ACTCAGCC,-0.154
25,CCGTGCTA,-0.0846

row,Sequence,PBM E-score
1,CTCATAAC,-0.017
2,ATGACAAT,0.18
3,ACCGGCGT,0.214
4,TCGCTACA,-0.303
5,ATGAATGC,0.0146
6,CCACCAAC,-0.104
7,TAAAGACA,-0.135
8,CGCCTCTC,-0.356
9,GAATGCTC,-0.157
10,CAGGCTGA,-0.177
11,GCCCCCCA,-0.389
12,ACTTTTCT,-0.044
13,ATGCTGCA,-0.0853
14,ACTGCCGA,0.262
15,CACACAAC,0.00749
16,GCTACAGC,-0.0202
17,GATTGGCC,-0.0975
18,AAACAGTT,0.109
19,ACGCACTC,-0.00473
20,AGTAGCAT,-0.0361
21,AAACTTGA,0.0495
22,AAGACTCA,-0.194
23,AGTTGCAA,0.0479
24,AAATACTT,0.182
25,GGCGTAAC,-0.195

row,Sequence,PBM E-score
1,ATGATACA,0.125
2,ACATACGC,-0.0638
3,CAATCACG,0.0574
4,TGTAAGAA,0.268
5,AATAATGG,0.0275
6,TAACTAGA,0.211
7,CGGTTATC,0.114
8,GGTAGATA,0.0473
9,ATAAACAG,0.0911
10,AACCCGCT,-0.0677
11,ACTGAATA,0.0772
12,AGAGACCA,-0.068
13,AACGACTA,0.0307
14,CGAGGTAA,0.11
15,TCCGGCAA,0.339
16,CTTAGGTA,-0.132
17,GTCCTAGA,-0.135
18,TGACGTCA,0.151
19,AAACCATG,0.0562
20,ATCATAGC,0.112
21,AGAACAGC,0.00378
22,GAACTACC,-0.134
23,GAACACGC,0.0326
24,CTAATCTA,0.0921
25,CTGCTGAC,-0.0247

row,Sequence,PBM E-score
1,CTATGGGA,-0.115
2,AAGTGCCC,-0.23
3,ACCTTTCA,-0.128
4,ACGCGGCG,0.113
5,GACGATCC,0.0002
6,CTCCAATC,-0.0781
7,CAGACACG,-0.0139
8,GCCCAACC,-0.188
9,ATATTGTC,0.21
10,AAGAGCCT,-0.221
11,AACGTGTG,-0.202
12,ATGCTAAG,0.0183
13,GTCAGATA,-0.0426
14,ACGCTCAC,-0.0464
15,CTGATTGC,0.0793
16,GATACAGC,0.0868
17,TCTTAAGA,0.0813
18,AAATCGGG,0.0884
19,ATATCTAA,0.068
20,CTCGGAGA,0.252
21,AACAGTTG,-0.31
22,ATTAGCGC,0.056
23,ACCCGCCT,-0.184
24,AAGGACTC,-0.19
25,AAACGTAG,-0.217

# Copied from the list:
# AAACGTAG | PBM E-score: -0.217
# ACGCTCAC | PBM E-score: -0.0464

# Next results.

row,Sequence,PBM E-score
1,ACCTTTTG,-0.21
2,AGTGAGGG,-0.188
3,CGGAAACG,0.146
4,CTCCAGTC,-0.195
5,ACGGCATA,0.176
6,ATCCACTC,-0.00405
7,TCGAGCCA,-0.00737
8,ACCTAACT,0.125
9,GATGTGGA,0.0626
10,GAATCCGA,0.183
11,AGGTGAAC,-0.112
12,CTTCGTAC,-0.0703
13,GACCCCCA,-0.301
14,CCTCAACG,-0.153
15,ATCATTCC,0.159
16,CTACAAAC,0.00848
17,AATCTCGC,0.108
18,CTAGCCAG,-0.159
19,AAGCACAA,0.146
